# From patent US20260125472A1
# The chains behind the UniProt entries cited, without tags or fusion partners. Where a name states a change or a piece, a line headed by the entry shows the natural chain unless it says otherwise.
# UniProt P04234: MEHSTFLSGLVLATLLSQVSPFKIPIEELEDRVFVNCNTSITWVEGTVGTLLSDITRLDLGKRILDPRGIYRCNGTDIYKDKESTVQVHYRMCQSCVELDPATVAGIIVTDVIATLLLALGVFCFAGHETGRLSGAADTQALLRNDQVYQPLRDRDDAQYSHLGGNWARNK
# UniProt P07766: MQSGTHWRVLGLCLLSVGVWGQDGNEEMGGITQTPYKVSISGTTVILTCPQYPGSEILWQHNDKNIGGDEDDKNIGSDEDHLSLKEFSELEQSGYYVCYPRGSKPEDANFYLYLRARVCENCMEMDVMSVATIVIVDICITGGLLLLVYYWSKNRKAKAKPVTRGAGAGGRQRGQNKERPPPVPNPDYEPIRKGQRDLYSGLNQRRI
# These are yes or no findings as the source states them, for the method shown. Some entries that bind do so weakly or less than the wild type.
# Tests used:
# CD3E&D protein [1] = target: CD3E&D protein (UniProt P04234); test: ELISA, CD3E&D coated on plate
# [2] = target: CD3 on CD8 T cells (Homo sapiens (Human)) (UniProt P07766); test: flow cytometry on CD8 T cells of PBMCs
# CD3E&D protein [3] = target: CD3E&D protein (UniProt P04234); test: ELISA, coated CD3E&D protein, OD450 [panel A]
# [4] = target: CD3 on CD8 T cells (Homo sapiens (Human)) (UniProt P07766); test: flow cytometry, CD8 T cells in PBMCs, binding ratio % (A) and MFI (B) [panels A, B]
# CD3E&D protein [5] = target: CD3E&D protein (UniProt P04234); test: ELISA, coated CD3E&D protein, OD450 [panel B]
Binder,binding (CD3E&D protein [1]),binding [2],binding (CD3E&D protein [3]),binding [4],binding (CD3E&D protein [5])
"Cross309 (antibody, human IgG1, kappa, V domains shown) VH: EVQLLESGGGLVQPGGSLKLSCAASGFTFNTYAMNWVRQAPGKGLEWVARIRSKYNNYATYYADSVKDRFTISRDDSKNTAYLQMNNLKTEDTAVYYCVRHGNFGNVYVSWFAYWGQGTLVTVSS VL: ELVVTQEPSLTVSPGGTVTLTCRSSTGAVTTSNYANWVQQKPGQAPRGLIGGTNKRAPGTPARFSGSLLGGKAALTLSGVQPEDEAEYYCALWYSNLWVFGGGTKLTVLR",binds,binds,binds,binds,–
"Cross313 (antibody, human IgG1, kappa, V domains shown) VH: EVQLLESGGGLVQPGGSLKLSCAASGFTFNTYAMNWVRQAPGKGLEWVARIRSKYNNYATYYADSVKDRFTISRDDSKNTAYLQMNNLKTEDTAVYYCVRHGNFGNSYQSWFAYWGQGTLVTVSS VL: ELVVTQEPSLTVSPGGTVTLTCRSSTGAVTTSNYANWVQQKPGQAPRGLIGGTNKRAPGTPARFSGSLLGGKAALTLSGVQPEDEAEYYCALWYSNLWVFGGGTKLTVLR",binds,binds,–,binds,binds
"Cross316 (antibody, human IgG1, kappa, V domains shown) VH: EVQLLESGGGLVQPGGSLKLSCAASGFTFNTYAMNWVRQAPGKGLEWVARIRSKYNNYATYYADSVKDRFTISRDDSKNTAYLQMNNLKTEDTAVYYCVRHGNFGNSYVSWFLYWGQGTLVTVSS VL: ELVVTQEPSLTVSPGGTVTLTCRSSTGAVTTSNYANWVQQKPGQAPRGLIGGTNKRAPGTPARFSGSLLGGKAALTLSGVQPEDEAEYYCALWYSNLWVFGGGTKLTVLR",binds,binds,–,binds,binds
"Cross314 (antibody, human IgG1, kappa, V domains shown) VH: EVQLLESGGGLVQPGGSLKLSCAASGFTFNTYAMNWVRQAPGKGLEWVARIRSKYNNYATYYADSVKDRFTISRDDSKNTAYLQMNNLKTEDTAVYYCVRHGNFGNSYSSWFAYWGQGTLVTVSS VL: ELVVTQEPSLTVSPGGTVTLTCRSSTGAVTTSNYANWVQQKPGQAPRGLIGGTNKRAPGTPARFSGSLLGGKAALTLSGVQPEDEAEYYCALWYSNLWVFGGGTKLTVLR",binds,binds,–,binds,binds
"Cross307 (antibody, human IgG1, kappa, V domains shown) VH: EVQLLESGGGLVQPGGSLKLSCAASGFTFNTYAMNWVRQAPGKGLEWVARIRSKYNNYATYYADSVKDRFTISRDDSKNTAYLQMNNLKTEDTAVYYCVRHGNFGNEYVSWFAYWGQGTLVTVSS VL: ELVVTQEPSLTVSPGGTVTLTCRSSTGAVTTSNYANWVQQKPGQAPRGLIGGTNKRAPGTPARFSGSLLGGKAALTLSGVQPEDEAEYYCALWYSNLWVFGGGTKLTVLR",binds,–,binds,–,–
"Cross312 (antibody, human IgG1, kappa, V domains shown) VH: EVQLLESGGGLVQPGGSLKLSCAASGFTFNTYAMNWVRQAPGKGLEWVARIRSKYNNYATYYADSVKDRFTISRDDSKNTAYLQMNNLKTEDTAVYYCVRHGNFGNSYHSWFAYWGQGTLVTVSS VL: ELVVTQEPSLTVSPGGTVTLTCRSSTGAVTTSNYANWVQQKPGQAPRGLIGGTNKRAPGTPARFSGSLLGGKAALTLSGVQPEDEAEYYCALWYSNLWVFGGGTKLTVLR",binds,binds,–,binds,binds

# The remaining lines, values ahead:
binding (CD3E&D protein [1]),binding [2],binding (CD3E&D protein [3]),binding [4],binding (CD3E&D protein [5]),Binder
binds,–,binds,–,–,"Cross303 (antibody, human IgG1, kappa, V domains shown) VH: EVQLLESGGGLVQPGGSLKLSCAASGFTFNTYAMNWVRQAPGKGLEWVARIRSKYNNYATYYADSVKDRFTISRDDSKNTAYLQMNNLKTEDTAVYYCVRHGMFGNSYVSWFAYWGQGTLVTVSS VL: ELVVTQEPSLTVSPGGTVTLTCRSSTGAVTTSNYANWVQQKPGQAPRGLIGGTNKRAPGTPARFSGSLLGGKAALTLSGVQPEDEAEYYCALWYSNLWVFGGGTKLTVLR"
binds,binds,–,binds,binds,"Cross311 (antibody, human IgG1, kappa, V domains shown) VH: EVQLLESGGGLVQPGGSLKLSCAASGFTFNTYAMNWVRQAPGKGLEWVARIRSKYNNYATYYADSVKDRFTISRDDSKNTAYLQMNNLKTEDTAVYYCVRHGNFGNSEVSWFAYWGQGTLVTVSS VL: ELVVTQEPSLTVSPGGTVTLTCRSSTGAVTTSNYANWVQQKPGQAPRGLIGGTNKRAPGTPARFSGSLLGGKAALTLSGVQPEDEAEYYCALWYSNLWVFGGGTKLTVLR"
binds,binds,–,binds,binds,"Cross318 (antibody, human IgG1, kappa, V domains shown) VH: EVQLLESGGGLVQPGGSLKLSCAASGFTFNTYAMNWVRQAPGKGLEWVARIRSKYNNYATYYADSVKDRFTISRDDSKNTAYLQMNNLKTEDTAVYYCVRHGNFGNSYVSWFAMWGQGTLVTVSS VL: ELVVTQEPSLTVSPGGTVTLTCRSSTGAVTTSNYANWVQQKPGQAPRGLIGGTNKRAPGTPARFSGSLLGGKAALTLSGVQPEDEAEYYCALWYSNLWVFGGGTKLTVLR"
binds,binds,–,binds,binds,"Cross317 (antibody, human IgG1, kappa, V domains shown) VH: EVQLLESGGGLVQPGGSLKLSCAASGFTFNTYAMNWVRQAPGKGLEWVARIRSKYNNYATYYADSVKDRFTISRDDSKNTAYLQMNNLKTEDTAVYYCVRHGNFGNSYVSWFAGWGQGTLVTVSS VL: ELVVTQEPSLTVSPGGTVTLTCRSSTGAVTTSNYANWVQQKPGQAPRGLIGGTNKRAPGTPARFSGSLLGGKAALTLSGVQPEDEAEYYCALWYSNLWVFGGGTKLTVLR"
binds,binds,binds,binds,–,"Cross310 (antibody, human IgG1, kappa, V domains shown) VH: EVQLLESGGGLVQPGGSLKLSCAASGFTFNTYAMNWVRQAPGKGLEWVARIRSKYNNYATYYADSVKDRFTISRDDSKNTAYLQMNNLKTEDTAVYYCVRHGNFGNYYVSWFAYWGQGTLVTVSS VL: ELVVTQEPSLTVSPGGTVTLTCRSSTGAVTTSNYANWVQQKPGQAPRGLIGGTNKRAPGTPARFSGSLLGGKAALTLSGVQPEDEAEYYCALWYSNLWVFGGGTKLTVLR"
binds,–,binds,–,–,"Cross308 (antibody, human IgG1, kappa, V domains shown) VH: EVQLLESGGGLVQPGGSLKLSCAASGFTFNTYAMNWVRQAPGKGLEWVARIRSKYNNYATYYADSVKDRFTISRDDSKNTAYLQMNNLKTEDTAVYYCVRHGNFGNPYVSWFAYWGQGTLVTVSS VL: ELVVTQEPSLTVSPGGTVTLTCRSSTGAVTTSNYANWVQQKPGQAPRGLIGGTNKRAPGTPARFSGSLLGGKAALTLSGVQPEDEAEYYCALWYSNLWVFGGGTKLTVLR"
